In patent publication US20250215091A1, “Anti-GAL3 Antibodies and Compositions” (Les Laboratoires Servier, priority 2022, published 2025):
Substitutions are numbered along the chain they refer to. No constants are given. Whether binding was seen depends on the method and setting. Some entries that bind do so weakly or less than the wild type. Blank lines part the entries; values can stand above or below the binder they belong to.

By UniProt entry, the sequences of proteins in these tests, tags left out. Where a name states a change or a piece, a line headed by the entry shows the natural chain unless it says otherwise.
UniProt P17931: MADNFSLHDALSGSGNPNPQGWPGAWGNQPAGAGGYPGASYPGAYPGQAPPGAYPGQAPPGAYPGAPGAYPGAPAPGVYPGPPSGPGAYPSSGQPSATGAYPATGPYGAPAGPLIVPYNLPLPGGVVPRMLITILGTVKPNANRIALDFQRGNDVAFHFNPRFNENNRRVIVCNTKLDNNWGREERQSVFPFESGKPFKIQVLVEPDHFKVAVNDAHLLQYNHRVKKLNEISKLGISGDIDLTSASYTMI
UniProt P16110: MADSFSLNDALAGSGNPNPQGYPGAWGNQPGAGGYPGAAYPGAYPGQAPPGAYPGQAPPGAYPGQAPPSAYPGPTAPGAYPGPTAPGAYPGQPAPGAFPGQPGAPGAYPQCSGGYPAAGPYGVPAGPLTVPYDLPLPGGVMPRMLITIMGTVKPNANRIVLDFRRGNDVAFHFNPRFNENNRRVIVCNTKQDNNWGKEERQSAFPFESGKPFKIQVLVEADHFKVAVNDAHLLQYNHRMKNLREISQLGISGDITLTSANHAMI

Tests used:
[1] = target: full length human Galectin-3 (human) (UniProt P17931); experiment: dose-response ELISA on His-tag-immobilised antigen (3 µg/mL), 3.3-fold serial dilution of IgG, anti-Fab.HRP, OD 450 nm [panel B12]
[2] = target: full length mouse Galectin-3 (mouse) (UniProt P16110); experiment: as above
[3] = target: T1, CRD domain of human Galectin-3 (human, UniProt P17931 106-250); experiment: ELISA, purified IgG 15-20 µg/mL; Gal3 of this experiment is Hu-Gal3-CRD (legend of FIG. 4)
T1 construct: Histidine-tagged; also called hu-Gal3-CRD; Hu-Gal3-CRD

[4] = target: full length human Galectin-3 (human) (UniProt P17931); experiment: dose-response ELISA on immobilized Hu-Gal3-FL
[5] = target: full length human Galectin-3 (human) (UniProt P17931); experiment: ELISA, immobilized antigen, purified IgG 15-20 µg/mL
[6] = target: full length mouse Galectin-3 (mouse) (UniProt P16110); experiment: as above
[7] = target: full length human Galectin-3 (human) (UniProt P17931); experiment: ELISA on His-tag-immobilised antigen (3 µg/mL), purified IgG at 15-20 µg/mL, anti-Fab.HRP, OD 450 nm
[8] = target: T1, CRD domain of human Galectin-3; experiment: as above
[9] = target: full length mouse Galectin-3 (mouse) (UniProt P16110); experiment: as above
[10] = target: full length mouse Galectin-3 (mouse) (UniProt P16110); experiment: dose-response ELISA on immobilized m-Gal3-FL
[11] = target: T1, CRD domain of human Galectin-3; experiment: ELISA on immobilised antigen (3 µg/mL), purified IgG at 15-20 µg/mL, anti-Fab.HRP, OD 450 nm
[12] = target: T1, CRD domain of human Galectin-3; experiment: competitive ELISA: ASF (8 µg/mL) binding to immobilised Hu-Gal3-CRD (1 µg/mL) with serial dilution of IgG; HRP-labeled anti-ASF antibody; Binding [%] [panel H10 + ASF]
[13] = target: full length human Galectin-3 (human) (UniProt P17931); experiment: dose-response ELISA on His-tag-immobilised antigen (3 µg/mL), 3.3-fold serial dilution of IgG, anti-Fab.HRP, OD 450 nm [panel H10]
[14] = target: full length mouse Galectin-3 (mouse) (UniProt P16110); experiment: as above
[15] = target: full length human Galectin-3 (human) (UniProt P17931); experiment: ELISA, immobilized antigen, periplasmic scFv extract
[16] = target: full length mouse Galectin-3 (mouse) (UniProt P16110); experiment: as above
[17] = target: full length human Galectin-3 (human) (UniProt P17931); experiment: ELISA on His-tag-immobilised antigen (3 µg/mL), periplasmic extract with scFv, anti-scFvTag.HRP, OD 450 nm
[18] = target: T1, CRD domain of human Galectin-3; experiment: as above
[19] = target: full length mouse Galectin-3 (mouse) (UniProt P16110); experiment: as above
[20] = target: full length human Galectin-3 (human) (UniProt P17931); experiment: competitive ELISA: ASF (30 µg/mL) binding to immobilised Hu-Gal3-FL (3 µg/mL) with periplasmic extract with scFv; sheep anti-ASF and anti-sheep.HRP; signal in % of the irrelevant scFv

binding [1]: binds
binding [2]: binds
binding [3]: binds
binding [4]: binds
binding [5]: binds
binding [6]: binds
binding [7]: binds
binding [8]: binds
binding [9]: binds
binding [10]: binds
binding [11]: binds
B1: anti-Gal3 antibody B12 (antibody, V domains shown)
VH: EVQLVESGGSLVKPGGSLRLSCAASGFTFSNDDMNWVRQAPGKGLEWISSIDGSSRSIYYADFVKGRFTISRDNAKNSLYLQMNSLRAEDTAVYYCVRSSGYSGGGMDVWGRGTLVTVSS
VL: QSVLTQPASVSGSPGQSITISCAGTSSDVGGSYNVAWYQQHPGKAPKLMIYSDSYRPSGVSNRFSGSKSGNTASLTISGLQAEDEADYYCSSYTSNSARVFGGGTKLEIK

binding [3]: binds
binding [5]: binds
binding [6]: binds
binding [12]: binds
binding [7]: binds
binding [8]: binds
binding [9]: binds
binding [13]: binds
binding [14]: binds
binding [11]: binds
B2: anti-Gal3 antibody H10 (antibody, V domains shown)
VH: EVQLVESGGSLVKPGGSLRLSCAASGFTFSNYYMNWVRQAPGKGLEWISYINGASRDISYADFVKGRFTISRDNAKNSLYLQMNSLRAEDTAVYYCVRSSYGYSNYGSGMDVWGRGTLVTVSS
VL: B1 VL with S52N, S54A, Y55N, Y93N, S95A, N96D, A98T

binding [15]: binds
binding [16]: binds
binding [17]: binds
binding [18]: binds
binding [19]: binds
binding [20]: binds
B3: anti-Gal3 scFv H10 (scFv, V domains shown, not shown: small tags and cut ends)
VH: B2 VH
VL: B1 VL with S52N, S54A, Y55N, Y93N, S95A, N96D, A98T
notes: Periplasmic extract from E. coli; also called H10 (scFv)

binding [15]: binds
binding [16]: binds
binding [17]: binds
binding [18]: binds
binding [19]: binds
binding [20]: binds
B4: anti-Gal3 scFv B12 (scFv, V domains shown, not shown: small tags and cut ends)
VH: B1 VH
VL: B1 VL
notes: Periplasmic extract from E. coli; also called B12 (scFv)
